Assay results from US8594947B2, “Crystal structure of an angiotensin-converting enzyme (ACE) and uses thereof” (University of Bath, priority 2002, dated 2013).
The name of at least one read-out is uncertain.

System: tACE
Assay: Kinetic constants for tACE hydrolysis of hippuryl-L-histidyl-L-leucine (Hip-His-Leu)
Type: biochemical, human
Experimental: Soluble, recombinant tACE (wild-type […], ACEΔ36NJ (SEQ ID NO: 2) and ACE glycosylation mutants), is purified from conditioned media by affinity chromatography on a Sepharose-28-lisinopril affinity resin. The protein is quantitated by amino acid analysis and assayed for activity using the substrate hippuryl-L-histidyl-L-leucine , as described (Ehlers, MRE, Chen, Y—N, Riordan, JF (1991) Proc Natl Acad Sci USA 88, 1009-1013).
Assays are performed in 100 mM potassium phosphate pH 8.3 containing 300 mM NaCl. Initial velocities are calculated over a range of Hip-His-Leu concentrations (0.2-5.0 mM) under initial rate conditions and fit to the Michaelis-Menten equation. Km and Vmax values are determined by non-linear regression analysis.

B1: tACE-wt: wild-type human testis ACE (SEQ ID NO: 1) retaining its 36-residue N-terminus, transmembrane region and juxtamembrane stalk, expressed in CHO cells (protein, listed as Homo sapiens)
chain: SQQVTVTHGTSSQATTSSQTTTHQATAHQTSAQSPNLVTDEAEASKFVEEYDRTSQVVWNEYAEANWNYNTNITTETSKILLQKNMQIANHTLKYGTQARKFDVNQLQNTTIKRIIKKVQDLERAALPAQELEEYNKILLDMETTYSVATVCHPNGSCLQLEPDLTNVMATSRKYEDLLWAWEGWRDKAGRAILQFYPKYVELINQAARLNGYVDAGDSWRSMYETPSLEQDLERLFQELQPLYLNLHAYVRRALHRHYGAQHINLEGPIPAHLLGNMWAQTWSNIYDLVVPFPSAPSMDTTEAMLKQGWTPRRMFKEADDFFTSLGLLPVPPEFWNKSMLEKPTDGREVVCHASAWDFYNGKDFRIKQCTTVNLEDLVVAHHEMGHIQYFMQYKDLPVALREGANPGFHEAIGDVLALSVSTPKHLHSLNLLSSEGGSDEHDINFLMKMALDKIAFIPFSYLVDQWRWRVFDGSITKENYNQEWWSLRLKYQGLCPPVPRTQGDFDPGAKFHIPSSVPYIRYFVSFIIQFQFHEALCQAAGHTGPLHKCDIYQSKEAGQRLATAMKLGFSRPWPEAMQLITGQPNMSASAMLSYFKPLLDWLRTENELHGEKLGWPQYNWTPNSARSEGPLPDSGRVSFLGLDLDAQQARVGQWLLLFLGIALLVATLGLSQRLFSIRHRSLHRHSHGPQFGSEVELRHS
Question: With B1 as the molecule, how does the kcat/Km read?
Answer: 72000 M⁻¹ s⁻¹
